From article PMC4794898
Results are given in words; binding and its absence hold for the method and conditions named. Binding calls can cover weak binding; strength is not graded here.

Amino acid sequences for entries named in this document (tags omitted).
UniProt Q8ILV1: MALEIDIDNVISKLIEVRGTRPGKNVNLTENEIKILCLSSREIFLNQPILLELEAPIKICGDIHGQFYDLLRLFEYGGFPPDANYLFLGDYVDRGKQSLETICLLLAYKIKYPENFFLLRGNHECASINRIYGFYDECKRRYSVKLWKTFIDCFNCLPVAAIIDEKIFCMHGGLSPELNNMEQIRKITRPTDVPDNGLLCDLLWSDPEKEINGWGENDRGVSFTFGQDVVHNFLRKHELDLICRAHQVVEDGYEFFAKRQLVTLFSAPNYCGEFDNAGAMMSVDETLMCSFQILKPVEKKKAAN

Target: PfPP1 fused with the GAL4 DNA binding domain (PfPP1-pGBKT7) (Plasmodium falciparum) (UniProt Q8ILV1)
Assay: two-hybrid; full-length PfPP1c fused to the GAL4 DNA binding domain (pGBKT7, Y187) as bait; P. falciparum cDNA library fused to GAL4AD (pGAD-HA, Y2HGold) by mating; growth on TDO/A or QDO/A; five independent screens

For “PF3D7_0419900 portion 1857–1998 (from UniProt B9ZSJ6) (domain or fragment)”, the binding was “binds”.

For “PF3D7_0419900 portion 4414–4679 (from UniProt B9ZSJ6) (domain or fragment)”, the binding was “binds”.

In the case of “PF3D7_1303800 portion 4987–5278 (from UniProt Q8IES7) (domain or fragment)”, the binding is reported as “binds”.

In the case of “PF3D7_1303800 portion 6176–6407 (from UniProt Q8IES7) (domain or fragment)”, the binding is reported as “binds”.

“PF3D7_1303800 portion 9165–9271 (from UniProt Q8IES7) (domain or fragment)” was tested, and the binding was “binds”.
